Results published in PMC7862700.
The other results are listed elsewhere or left out. The exact form of the protein is not confirmed.

These sequences were tested against T1, ELF2 (UniProt Q15723) (assay: DAPPL (digital affinity profiling via proximity ligation, sequencing)). Details: 10 mM Tris-HCl pH 7.5, 50 mM NaCl, 1 mM DTT, 4% glycerol, room temperature, 30 min; GST-TFs on glutathione beads, 16-mer random dsDNA library, 0.1% …; high values mean tight binding; double strand, one strand shown; scale: fold enrichment (6-mer frequency, TF over GST control).
T1 sequence: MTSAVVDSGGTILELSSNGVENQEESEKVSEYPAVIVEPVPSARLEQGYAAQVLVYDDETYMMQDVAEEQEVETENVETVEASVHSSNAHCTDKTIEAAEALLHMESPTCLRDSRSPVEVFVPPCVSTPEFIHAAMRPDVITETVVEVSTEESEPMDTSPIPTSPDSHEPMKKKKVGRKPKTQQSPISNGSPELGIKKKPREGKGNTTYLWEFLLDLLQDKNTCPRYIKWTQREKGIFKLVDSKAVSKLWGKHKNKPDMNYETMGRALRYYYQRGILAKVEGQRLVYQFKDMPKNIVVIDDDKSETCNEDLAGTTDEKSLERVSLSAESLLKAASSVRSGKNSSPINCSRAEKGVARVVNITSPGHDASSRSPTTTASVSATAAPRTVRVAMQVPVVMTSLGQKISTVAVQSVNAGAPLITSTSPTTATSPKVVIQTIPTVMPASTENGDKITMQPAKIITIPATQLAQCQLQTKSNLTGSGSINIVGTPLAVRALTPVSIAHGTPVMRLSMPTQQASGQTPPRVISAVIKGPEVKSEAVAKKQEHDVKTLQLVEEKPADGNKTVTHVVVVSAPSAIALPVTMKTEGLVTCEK
ATTAAG was tested, and the binding signal was 1.08.
Work on CGTACA yielded a binding signal of 1.15.
In the case of TCGGCT, the binding signal is reported as 0.902.
Work on CTTAAA yielded a binding signal of 1.15.
With ATGCTC the binding signal was 1.26.
ACGATT was tested, and the binding signal was 1.32.
Work on TGCCCC yielded a binding signal of 1.18.
Work on CTACGG yielded a binding signal of 1.3.
GCATTA gave a binding signal of 0.844.
AGGTCT gave a binding signal of 1.08.
With TTAGGC the binding signal was 0.938.
For CTGAAC, the binding signal was 1.34.
TTAGTC gave a binding signal of 0.756.
For TTAAAT, the binding signal was 1.11.
Sequence GGTTCT has a binding signal of 0.998.
For CTGCAT, the binding signal was 1.36.
ACATGC gave a binding signal of 1.27.
For AAGAAG, the binding signal was 1.08.
TTCCAT showed a binding signal of 1.23.
CCCTAG gave a binding signal of 0.953.
Sequence TAGTAT has a binding signal of 1.24.
GGAACT was tested, and the binding signal was 2.35.
With GCTCCG the binding signal was 1.24.
TTCGCT gave a binding signal of 1.19.
CAACTA showed a binding signal of 1.29.
TTGTGT was tested, and the binding signal was 1.14.
Work on CCTTGA yielded a binding signal of 1.19.
In the case of CAAGAT, the binding signal is reported as 1.04.
With AGCTAG the binding signal was 0.987.
With AGCCTT the binding signal was 1.11.
For GTTCCT, the binding signal was 2.1.
In the case of TGCGCA, the binding signal is reported as 1.09.
Sequence CACGAC has a binding signal of 1.17.
GGCACT was tested, and the binding signal was 1.28.
TATAAA gave a binding signal of 1.24.
Sequence ATAACC has a binding signal of 1.22.
With ATTGTA the binding signal was 1.14.
For CCTAAT, the binding signal was 1.26.
For CTATTT, the binding signal was 1.86.
TCGTCT was tested, and the binding signal was 1.28.
